This assay in a line: qHTS Assay for Lipid Storage Modulators in Drosophila S3 Cells.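 As to cell number change: cells counted by Cell Tracker Red CMTPX staining in the red channel.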 The note with it: BODIPY lipid droplet fluorescence, 18-24 h; for cell number change: measured here: cell count max response, cells fed with added oleic acid. The essentials:
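Drosophila S3 cells got compounds at several concentrations plus oleic acid (400 uM solution). Laser-scanning cytometry with 488 nm excitation read lipid droplets at 500-530 nm and cells at 575-640 nm. Percent activity was relative to 20 uM Triacsin C.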
For orientation: qHTS replaces the single test concentration by a dilution series.

Setting [1] is: measured here: cell number channel AC50, cells fed with added oleic acid.
Where [2] appears, read: measured here: lipid fluorescence (Fed channel) AC50, cells fed with added oleic acid.

This is one part of the list. Shown are side measurements of this screen, not its main read-out; they come without a call. Most of these compounds were active or inconclusive in the main read-out, so they are no random draw. Potencies come from curve fits of mixed quality, noted in brackets.

`CCC(=O)Nc1nc(C)c(-c2csc(Nc3ccc(C(=O)O)cc3)n2)s1`: the cell number change is -25%.

In the case of `COc1ccc(NC(=O)CN2C(=O)/C(=C3\SC(=S)N(CCC(=O)O)C3=O)c3ccccc32)cc1`, the cell number change stood at 11.4%.

A word on the AC50: it is the midpoint of the concentration-response curve, whichever way the signal moves. A lower AC50 goes with activity at low concentration. Regarding `COCc1cc(C)nc(SCC(=O)Nc2ccc3c(c2)OCO3)c1C#N`, the AC50 under setting [1] is 2.59 µM [rising, partial curve] and the AC50 under setting [2] is 6.51 µM [rising, partial curve].

For the compound `O=C1OC(/C=C/c2ccc(Cl)cc2Cl)=NC/1=C\c1cccs1`, the cell number change is 31.9%. The AC50 under setting [1] was 0.103 µM [rising, full curve, poor fit]. Besides, the AC50 under setting [2] is 0.146 µM [falling, full curve, poor fit].

Take `COCCn1c(N)c(N(Cc2ccccc2)C(=O)c2ccc(-c3ccc(Cl)cc3)o2)c(=O)[nH]c1=O`: the AC50 under setting [2] was 0.461 µM [falling, single point].

For `CN(Cc1ccco1)C(=O)CCc1nc2sc3c(c2c(=O)[nH]1)CCCC3`, the cell number change is -14.6%. The AC50 under setting [2] was 18.4 µM [falling, single point].

Regarding `Cc1ccc2nc(SCC(=O)O)nc(C)c2c1`, the cell number change was -20.8%. For the same compound, the AC50 under setting [2] is 0.82 µM [falling, full curve].

As to `Cn1cc(C(=O)N/N=C/c2ccc(Br)c([N+](=O)[O-])c2)c2ccccc21`, the cell number change was found to be 56.5%. In addition, the AC50 under setting [1] is 7.31 µM [rising, partial curve]. Besides, under setting [2], the AC50 is 6.51 µM [rising, full curve].

Turning to `CCOC(=O)c1c(C)[nH]c(C(=O)CSc2nc(C)cc(C)n2)c1C`, the cell number change was 41.1%. In addition, the AC50 under setting [1] is 0.651 µM [rising, full curve]. Also, the AC50 under setting [2] was 1.03 µM [rising, full curve].

Turning to `COc1ccc(Br)cc1CNC(=O)C1CCCN(S(C)(=O)=O)C1` (stereo not drawn), the cell number change is 75.5%. In addition, the half-maximal activity concentration (AC50) under setting [1] is 18.4 µM [rising, single point].

As for `Cc1nc(SCC(=O)NCC2CCCO2)c2c3c(sc2n1)CCCC3` (stereo not drawn), the cell number change came to 19%.

For `CCN1C(=O)C(O)(CC(=O)c2ccc(-n3cccc3)cc2)c2ccccc21` (stereo not drawn), the AC50 under setting [2] is 5.8 µM [falling, full curve, poor fit].

For the compound `CCOc1ccc(N2C(=O)C3ON(C)C(c4ccc([N+](=O)[O-])cc4)C3C2=O)cc1` (stereo not drawn), the cell number change is -20.5%. The AC50 under setting [2] was 29.1 µM [falling, single point].

`O=C(Nc1nnc(C2CC2)s1)C1CCCO1` (stereo not drawn): the cell number change was found to be 10.3%. Moreover, the half-maximal activity concentration (AC50) under setting [1] is 6.51 µM [falling, single point].

With `O=C(CN1CCc2ccccc21)NCc1ccc2c(c1)OCO2`, the cell number change was 12.5%. Moreover, the AC50 under setting [2] was 29.1 µM [rising, single point].

Consider `Cc1cc(C)n2nc(C(=O)NC3CCCc4ccccc43)nc2n1` (stereo not drawn), for which the cell number change is -9.48%. The AC50 under setting [2] was 6.51 µM [falling, single point].

On to `CN(C)CCCNc1cc(C(C)(C)C)nc2c(-c3ccc(Cl)cc3)cnn12`, for which the cell number change was -65.5%. The AC50 under setting [1] is 20.6 µM [falling, single point]. Further, the AC50 under setting [2] was 29.1 µM [falling, single point].
